Reference: the supplement of paper PMC10849652
This is one part of the list.

Chains of the proteins cited; added tags and fusions are not shown. Lines headed by an entry give the natural chain unless they say otherwise; changes in a name come on top.
UniProt Q13409, whole entry, looked up: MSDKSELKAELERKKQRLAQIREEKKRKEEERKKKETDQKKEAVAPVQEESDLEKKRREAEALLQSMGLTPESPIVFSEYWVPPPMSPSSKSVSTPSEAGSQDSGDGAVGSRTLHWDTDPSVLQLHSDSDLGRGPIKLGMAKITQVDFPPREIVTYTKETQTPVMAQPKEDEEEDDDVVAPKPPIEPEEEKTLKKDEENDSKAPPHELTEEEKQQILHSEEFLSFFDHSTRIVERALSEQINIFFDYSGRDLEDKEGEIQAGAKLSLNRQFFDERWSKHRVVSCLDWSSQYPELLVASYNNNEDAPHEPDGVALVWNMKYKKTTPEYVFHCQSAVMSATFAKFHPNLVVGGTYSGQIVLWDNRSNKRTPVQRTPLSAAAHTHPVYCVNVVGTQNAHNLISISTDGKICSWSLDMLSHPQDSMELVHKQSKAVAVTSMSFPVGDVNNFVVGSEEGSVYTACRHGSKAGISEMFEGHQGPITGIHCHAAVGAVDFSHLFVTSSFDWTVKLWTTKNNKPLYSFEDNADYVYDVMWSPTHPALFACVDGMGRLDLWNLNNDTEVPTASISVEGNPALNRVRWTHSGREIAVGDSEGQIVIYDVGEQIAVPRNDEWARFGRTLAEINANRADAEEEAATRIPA
UniProt O95905: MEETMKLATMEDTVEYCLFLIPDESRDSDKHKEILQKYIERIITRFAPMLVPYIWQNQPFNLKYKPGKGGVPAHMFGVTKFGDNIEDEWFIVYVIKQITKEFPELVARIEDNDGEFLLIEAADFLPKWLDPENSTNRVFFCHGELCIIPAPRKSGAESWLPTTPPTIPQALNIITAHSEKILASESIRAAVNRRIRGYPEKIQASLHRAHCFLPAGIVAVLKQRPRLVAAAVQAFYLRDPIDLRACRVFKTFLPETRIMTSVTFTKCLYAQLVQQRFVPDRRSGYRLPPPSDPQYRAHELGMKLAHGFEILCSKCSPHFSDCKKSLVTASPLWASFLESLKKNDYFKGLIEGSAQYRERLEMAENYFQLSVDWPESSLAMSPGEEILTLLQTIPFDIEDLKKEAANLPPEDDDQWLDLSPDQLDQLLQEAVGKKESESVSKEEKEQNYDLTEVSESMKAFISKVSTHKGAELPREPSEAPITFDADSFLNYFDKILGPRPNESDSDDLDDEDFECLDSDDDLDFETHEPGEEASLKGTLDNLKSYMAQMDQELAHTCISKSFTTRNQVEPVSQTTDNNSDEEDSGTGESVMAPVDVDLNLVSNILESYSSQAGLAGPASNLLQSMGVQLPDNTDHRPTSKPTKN
UniProt Q66K89: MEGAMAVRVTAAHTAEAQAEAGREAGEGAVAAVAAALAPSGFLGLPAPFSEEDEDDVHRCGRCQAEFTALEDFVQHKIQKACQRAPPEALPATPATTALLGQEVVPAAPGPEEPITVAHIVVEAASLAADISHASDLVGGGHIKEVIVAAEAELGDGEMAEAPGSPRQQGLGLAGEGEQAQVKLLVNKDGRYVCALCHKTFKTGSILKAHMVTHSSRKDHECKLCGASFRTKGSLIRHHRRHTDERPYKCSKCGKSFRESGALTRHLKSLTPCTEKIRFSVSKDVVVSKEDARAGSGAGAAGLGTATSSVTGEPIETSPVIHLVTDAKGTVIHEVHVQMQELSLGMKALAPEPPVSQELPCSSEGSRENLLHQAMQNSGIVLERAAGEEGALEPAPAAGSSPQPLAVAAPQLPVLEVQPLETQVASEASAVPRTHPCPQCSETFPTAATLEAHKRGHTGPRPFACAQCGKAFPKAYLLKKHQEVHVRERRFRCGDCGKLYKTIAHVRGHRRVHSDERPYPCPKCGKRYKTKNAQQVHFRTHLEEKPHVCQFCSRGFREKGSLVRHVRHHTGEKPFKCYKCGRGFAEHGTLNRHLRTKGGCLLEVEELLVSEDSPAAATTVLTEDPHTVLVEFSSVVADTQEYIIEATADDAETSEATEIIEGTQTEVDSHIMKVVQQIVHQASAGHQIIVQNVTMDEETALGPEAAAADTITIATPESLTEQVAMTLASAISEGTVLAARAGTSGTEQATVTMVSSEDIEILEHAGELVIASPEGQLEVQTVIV
UniProt Q8NF50: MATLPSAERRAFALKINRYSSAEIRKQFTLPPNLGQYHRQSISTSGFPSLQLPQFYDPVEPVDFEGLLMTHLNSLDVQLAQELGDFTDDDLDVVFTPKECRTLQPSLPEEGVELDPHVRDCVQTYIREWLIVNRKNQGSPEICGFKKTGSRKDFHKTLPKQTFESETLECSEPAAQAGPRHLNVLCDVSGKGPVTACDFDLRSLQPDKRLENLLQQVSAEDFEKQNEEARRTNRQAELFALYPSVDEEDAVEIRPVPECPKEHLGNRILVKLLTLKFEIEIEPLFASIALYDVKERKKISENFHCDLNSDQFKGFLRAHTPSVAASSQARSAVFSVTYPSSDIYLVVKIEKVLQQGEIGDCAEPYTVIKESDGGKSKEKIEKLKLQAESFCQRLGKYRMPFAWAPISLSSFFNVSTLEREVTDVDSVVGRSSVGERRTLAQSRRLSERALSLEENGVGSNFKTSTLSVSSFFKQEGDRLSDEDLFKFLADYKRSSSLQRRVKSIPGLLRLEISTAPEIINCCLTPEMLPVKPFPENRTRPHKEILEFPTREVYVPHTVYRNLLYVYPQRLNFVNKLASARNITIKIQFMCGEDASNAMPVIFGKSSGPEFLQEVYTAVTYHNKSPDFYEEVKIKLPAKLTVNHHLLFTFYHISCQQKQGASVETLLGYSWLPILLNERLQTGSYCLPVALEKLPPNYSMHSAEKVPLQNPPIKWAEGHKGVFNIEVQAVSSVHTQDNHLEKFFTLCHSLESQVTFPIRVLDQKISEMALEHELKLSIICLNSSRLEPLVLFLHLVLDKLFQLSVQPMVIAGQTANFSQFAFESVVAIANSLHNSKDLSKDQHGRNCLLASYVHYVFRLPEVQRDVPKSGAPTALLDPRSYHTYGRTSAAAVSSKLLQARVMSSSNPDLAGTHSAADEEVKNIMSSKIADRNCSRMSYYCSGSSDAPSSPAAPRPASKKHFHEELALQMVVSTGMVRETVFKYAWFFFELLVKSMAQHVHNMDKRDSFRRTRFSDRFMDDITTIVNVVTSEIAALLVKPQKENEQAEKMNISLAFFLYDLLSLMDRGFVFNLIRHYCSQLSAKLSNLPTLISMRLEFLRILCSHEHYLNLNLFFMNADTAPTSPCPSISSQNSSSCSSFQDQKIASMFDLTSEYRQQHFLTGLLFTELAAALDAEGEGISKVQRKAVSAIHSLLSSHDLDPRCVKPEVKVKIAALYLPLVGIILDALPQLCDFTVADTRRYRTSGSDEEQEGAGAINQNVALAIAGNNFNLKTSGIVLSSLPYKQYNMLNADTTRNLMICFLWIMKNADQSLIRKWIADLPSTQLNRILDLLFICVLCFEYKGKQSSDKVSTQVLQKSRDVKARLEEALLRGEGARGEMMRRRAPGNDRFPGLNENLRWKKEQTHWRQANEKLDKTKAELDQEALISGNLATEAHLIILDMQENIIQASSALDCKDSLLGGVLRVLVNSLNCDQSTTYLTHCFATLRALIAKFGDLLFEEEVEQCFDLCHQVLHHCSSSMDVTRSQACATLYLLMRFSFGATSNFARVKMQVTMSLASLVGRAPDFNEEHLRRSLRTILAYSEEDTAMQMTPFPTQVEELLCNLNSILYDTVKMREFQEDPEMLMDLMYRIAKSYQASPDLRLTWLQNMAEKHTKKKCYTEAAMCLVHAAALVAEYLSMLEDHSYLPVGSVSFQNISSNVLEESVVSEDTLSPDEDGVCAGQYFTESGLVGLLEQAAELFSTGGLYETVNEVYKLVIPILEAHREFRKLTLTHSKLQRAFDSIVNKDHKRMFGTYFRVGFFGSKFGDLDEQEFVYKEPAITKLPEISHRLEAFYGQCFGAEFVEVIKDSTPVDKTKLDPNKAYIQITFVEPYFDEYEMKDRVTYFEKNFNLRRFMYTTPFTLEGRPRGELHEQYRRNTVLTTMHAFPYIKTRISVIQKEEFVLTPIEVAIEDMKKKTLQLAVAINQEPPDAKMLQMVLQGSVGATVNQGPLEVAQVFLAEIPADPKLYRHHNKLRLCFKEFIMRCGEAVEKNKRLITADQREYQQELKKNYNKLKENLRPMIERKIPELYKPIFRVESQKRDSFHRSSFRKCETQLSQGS
UniProt Q86YN1: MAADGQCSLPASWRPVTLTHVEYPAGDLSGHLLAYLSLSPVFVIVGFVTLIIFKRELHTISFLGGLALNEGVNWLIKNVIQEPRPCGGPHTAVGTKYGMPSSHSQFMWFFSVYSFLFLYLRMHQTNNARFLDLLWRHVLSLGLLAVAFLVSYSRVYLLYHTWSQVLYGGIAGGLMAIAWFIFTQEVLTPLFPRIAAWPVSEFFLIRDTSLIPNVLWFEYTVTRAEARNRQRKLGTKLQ
UniProt P63172, whole entry, looked up: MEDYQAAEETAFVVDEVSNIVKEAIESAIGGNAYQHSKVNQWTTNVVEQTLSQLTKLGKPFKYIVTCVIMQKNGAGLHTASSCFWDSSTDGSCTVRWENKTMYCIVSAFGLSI
UniProt O00429, whole entry, looked up: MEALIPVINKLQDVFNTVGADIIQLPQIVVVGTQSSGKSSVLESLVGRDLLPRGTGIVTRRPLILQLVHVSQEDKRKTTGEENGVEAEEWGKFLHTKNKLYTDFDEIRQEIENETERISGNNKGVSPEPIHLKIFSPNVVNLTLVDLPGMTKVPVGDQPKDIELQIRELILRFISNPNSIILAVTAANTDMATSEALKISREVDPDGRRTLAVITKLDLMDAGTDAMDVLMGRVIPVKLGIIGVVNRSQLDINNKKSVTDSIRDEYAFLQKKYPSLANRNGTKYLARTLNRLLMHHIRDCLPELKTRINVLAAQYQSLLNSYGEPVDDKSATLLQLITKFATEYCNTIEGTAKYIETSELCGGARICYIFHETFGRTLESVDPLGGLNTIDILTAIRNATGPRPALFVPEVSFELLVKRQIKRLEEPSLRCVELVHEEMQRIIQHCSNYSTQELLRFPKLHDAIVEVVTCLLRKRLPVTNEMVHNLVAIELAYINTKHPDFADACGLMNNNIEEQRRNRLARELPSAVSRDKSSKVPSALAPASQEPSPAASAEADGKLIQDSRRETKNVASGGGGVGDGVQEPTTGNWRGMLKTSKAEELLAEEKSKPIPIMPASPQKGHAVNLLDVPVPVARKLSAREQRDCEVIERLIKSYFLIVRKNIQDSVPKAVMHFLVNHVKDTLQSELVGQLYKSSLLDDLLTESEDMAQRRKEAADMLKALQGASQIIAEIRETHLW
UniProt Q96DC8: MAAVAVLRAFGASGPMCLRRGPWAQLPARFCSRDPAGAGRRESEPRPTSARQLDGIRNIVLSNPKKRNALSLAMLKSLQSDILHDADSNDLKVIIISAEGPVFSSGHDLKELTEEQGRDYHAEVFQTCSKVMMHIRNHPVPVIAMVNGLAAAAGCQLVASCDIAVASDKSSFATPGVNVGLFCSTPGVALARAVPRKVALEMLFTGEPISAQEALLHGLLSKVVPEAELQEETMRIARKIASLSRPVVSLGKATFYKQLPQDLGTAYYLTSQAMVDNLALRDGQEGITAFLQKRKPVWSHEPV
UniProt Q4LDG9: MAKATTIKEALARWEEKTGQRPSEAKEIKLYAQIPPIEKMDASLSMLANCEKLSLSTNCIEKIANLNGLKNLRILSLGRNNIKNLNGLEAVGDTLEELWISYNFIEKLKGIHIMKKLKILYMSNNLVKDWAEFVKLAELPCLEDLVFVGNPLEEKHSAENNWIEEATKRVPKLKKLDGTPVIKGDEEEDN
UniProt Q6UX65: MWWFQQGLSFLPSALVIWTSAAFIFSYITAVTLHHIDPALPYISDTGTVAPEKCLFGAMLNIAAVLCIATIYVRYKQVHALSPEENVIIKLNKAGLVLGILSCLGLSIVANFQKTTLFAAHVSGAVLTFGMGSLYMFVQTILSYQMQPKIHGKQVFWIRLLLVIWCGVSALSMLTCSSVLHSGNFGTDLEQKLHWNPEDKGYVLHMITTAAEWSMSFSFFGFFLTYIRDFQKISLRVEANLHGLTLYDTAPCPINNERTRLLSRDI
UniProt Q96FX2: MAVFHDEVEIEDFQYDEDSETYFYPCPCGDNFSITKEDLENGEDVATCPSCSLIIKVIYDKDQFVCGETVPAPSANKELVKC
UniProt Q99704: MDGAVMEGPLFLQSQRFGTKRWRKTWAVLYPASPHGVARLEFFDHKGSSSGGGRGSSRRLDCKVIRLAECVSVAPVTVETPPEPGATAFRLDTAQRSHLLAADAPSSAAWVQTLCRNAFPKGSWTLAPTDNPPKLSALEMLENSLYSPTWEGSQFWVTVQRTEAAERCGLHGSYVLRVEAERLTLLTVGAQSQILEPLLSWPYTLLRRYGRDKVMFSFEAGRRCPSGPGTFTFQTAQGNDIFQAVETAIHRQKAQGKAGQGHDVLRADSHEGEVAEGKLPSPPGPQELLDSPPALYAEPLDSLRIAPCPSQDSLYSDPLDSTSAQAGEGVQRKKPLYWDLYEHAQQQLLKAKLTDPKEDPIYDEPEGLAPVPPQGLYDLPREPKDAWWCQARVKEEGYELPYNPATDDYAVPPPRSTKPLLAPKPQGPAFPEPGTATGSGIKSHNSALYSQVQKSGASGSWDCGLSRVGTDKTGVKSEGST

Compound: CC(C)(C)Cn1c(N)nc2ccc(-c3[nH]c(C(C)(C)C)nc3-c3ccc(F)cc3)nc21 [ralimetinib]
Assay: log2 fold change, soluble protein after heating vs DMSO (PISA); higher = thermal stabilisation; K562 cells, 10 uM, 30 min; active = over 0.2 and 3.5 SD of the protein, either way, in both replicates (recomputed)
Procedure, shortened: (§1)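 For each measurement, 10 μM compound was applied for 30 min to K562 cells at 2×10^6 cells/mL. Aliquots were heated for 3 min across 48°C-58°C, pooled, and extracted in PBS with 0.5% NP-40 at 4°C; the supernatant after 21,000xg for 90 min was soluble protein. This was quantified by TMTpro 16plex LC-MS/MS with channel sums equalised, and thermal stability was reported relative to control samples from duplicates, on a log2 fold-change scale.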

log2 fold change, inactive:
DOP1B (UniProt Q9Y3R5) -0.071
E2F3 (UniProt O00716) 0.011
DYNC1I2 isoform 2 (UniProt Q13409) 0.055
ECD isoform 3 (UniProt O95905) 0.123
E4F1 (UniProt Q66K89) 0.107
EAPP (UniProt Q56P03) -0.079
DNTTIP2 (UniProt Q5QJE6) 0.089
DOCK8 (UniProt Q8NF50) 0.105
DOLPP1 (UniProt Q86YN1) -0.128
DSN1 (UniProt Q9H410) -0.131
DNM2 isoform 4 (UniProt P50570) 0.005
DYRK1A isoform 2 (UniProt Q13627) -0.046
DYNLT1 (UniProt P63172) 0.104
DNM1L isoform 2 (UniProt O00429) 0.028
DTWD2 (UniProt Q8NBA8) 0.092
DUSP9 (UniProt Q99956) 0.035
DOCK10 (UniProt Q96BY6) -0.001
DONSON (UniProt Q9NYP3) -0.147
DNAJC24 (UniProt Q6P3W2) 0.058
ECHDC3 (UniProt Q96DC8) 0.041
DNAL1 (UniProt Q4LDG9) 0.042
DYM (UniProt Q7RTS9) 0.035

Compound: CC(C)(O)CC(=O)NCCn1ccc2ncnc(Nc3ccc(Oc4cccc(C(F)(F)F)c4)c(Cl)c3)c21
Assay: as above
Procedure, shortened: as §1

log2 fold change, inactive:
DOP1B (UniProt Q9Y3R5) 0.097
E2F3 (UniProt O00716) -0.05
DYNC1I2 isoform 2 (UniProt Q13409) -0.133
ECD isoform 3 (UniProt O95905) -0.011
DRAM2 (UniProt Q6UX65) 0.115
E4F1 (UniProt Q66K89) -0.03
DNTTIP2 (UniProt Q5QJE6) 0.046
DOCK8 (UniProt Q8NF50) -0.198
DSN1 (UniProt Q9H410) -0.055
DTD2 (UniProt Q96FN9) 0.247
DNAJC16 (UniProt Q9Y2G8) -0.143
DNM2 isoform 4 (UniProt P50570) -0.101
DYRK1A isoform 2 (UniProt Q13627) -0.042
DTWD2 (UniProt Q8NBA8) -0.07
DUSP9 (UniProt Q99956) -0.186
DONSON (UniProt Q9NYP3) 0.228
DPH3 (UniProt Q96FX2) 0
DOK1 (UniProt Q99704) -0.357
DNAJC24 (UniProt Q6P3W2) 0.026
DPYSL2 (UniProt Q16555) 0.092
ECHDC3 (UniProt Q96DC8) -0.137
DNAL1 (UniProt Q4LDG9) 0.183
DYM (UniProt Q7RTS9) -0.235
DNPEP (UniProt C9JBE1) -0.089
